For seven targets, log2 fold change results are on record in the supplement of paper PMC12819154, “High-throughput peptide-centric local stability assay extends protein–ligand identification to membrane proteins, tissues and bacteria” (Nature Structural & Molecular Biology, 2025).

Chains of the proteins cited; added tags and fusions are not shown. Lines headed by an entry give the natural chain unless they say otherwise; changes in a name come on top.
UniProt P61022: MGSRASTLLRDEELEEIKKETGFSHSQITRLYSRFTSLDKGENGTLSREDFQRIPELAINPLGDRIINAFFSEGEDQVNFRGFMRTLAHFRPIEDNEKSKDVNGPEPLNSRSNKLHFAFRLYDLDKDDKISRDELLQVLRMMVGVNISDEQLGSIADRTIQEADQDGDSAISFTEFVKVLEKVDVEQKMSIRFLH
UniProt P59108: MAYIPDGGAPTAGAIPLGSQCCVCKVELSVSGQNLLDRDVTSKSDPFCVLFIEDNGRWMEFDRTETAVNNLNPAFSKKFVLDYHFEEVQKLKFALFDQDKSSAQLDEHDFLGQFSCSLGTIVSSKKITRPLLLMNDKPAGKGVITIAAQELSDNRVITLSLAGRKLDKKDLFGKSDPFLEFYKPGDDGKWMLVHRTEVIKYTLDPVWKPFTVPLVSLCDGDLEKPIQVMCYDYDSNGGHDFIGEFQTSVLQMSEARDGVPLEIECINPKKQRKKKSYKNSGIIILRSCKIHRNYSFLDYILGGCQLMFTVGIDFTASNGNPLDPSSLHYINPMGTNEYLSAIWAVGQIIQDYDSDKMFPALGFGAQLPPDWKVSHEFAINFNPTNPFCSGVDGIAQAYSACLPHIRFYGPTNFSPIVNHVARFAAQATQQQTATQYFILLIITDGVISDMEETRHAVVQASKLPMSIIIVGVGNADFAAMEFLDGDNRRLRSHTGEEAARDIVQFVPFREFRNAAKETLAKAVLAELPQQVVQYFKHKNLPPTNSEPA
UniProt P56477: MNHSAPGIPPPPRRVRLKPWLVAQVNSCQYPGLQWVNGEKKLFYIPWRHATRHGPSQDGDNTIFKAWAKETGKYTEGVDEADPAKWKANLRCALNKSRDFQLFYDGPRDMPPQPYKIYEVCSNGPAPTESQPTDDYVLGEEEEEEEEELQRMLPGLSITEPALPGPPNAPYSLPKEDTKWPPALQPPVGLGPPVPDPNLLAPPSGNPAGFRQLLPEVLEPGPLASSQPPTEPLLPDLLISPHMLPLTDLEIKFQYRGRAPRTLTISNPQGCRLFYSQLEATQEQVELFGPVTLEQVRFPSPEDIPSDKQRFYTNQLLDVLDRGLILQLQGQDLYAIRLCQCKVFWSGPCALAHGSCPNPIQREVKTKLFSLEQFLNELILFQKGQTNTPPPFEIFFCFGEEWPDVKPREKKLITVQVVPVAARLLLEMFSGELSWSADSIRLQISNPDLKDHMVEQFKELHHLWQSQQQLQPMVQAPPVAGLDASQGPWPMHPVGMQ
UniProt P56382: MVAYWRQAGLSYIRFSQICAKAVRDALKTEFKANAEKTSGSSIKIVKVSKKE
UniProt P56480, whole entry: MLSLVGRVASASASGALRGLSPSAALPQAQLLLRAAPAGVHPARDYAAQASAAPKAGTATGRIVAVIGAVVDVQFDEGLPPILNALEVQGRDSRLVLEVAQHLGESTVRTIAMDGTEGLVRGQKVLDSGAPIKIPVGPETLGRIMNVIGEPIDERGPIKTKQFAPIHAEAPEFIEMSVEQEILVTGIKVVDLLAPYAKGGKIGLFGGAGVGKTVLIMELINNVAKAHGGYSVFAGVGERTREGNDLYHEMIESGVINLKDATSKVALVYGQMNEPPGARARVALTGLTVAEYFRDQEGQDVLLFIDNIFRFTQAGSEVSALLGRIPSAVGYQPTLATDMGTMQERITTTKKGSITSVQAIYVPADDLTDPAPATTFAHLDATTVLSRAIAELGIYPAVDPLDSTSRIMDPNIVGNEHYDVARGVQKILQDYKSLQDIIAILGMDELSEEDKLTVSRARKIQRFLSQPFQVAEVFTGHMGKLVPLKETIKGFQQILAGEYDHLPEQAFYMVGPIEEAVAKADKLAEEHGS
UniProt P56379: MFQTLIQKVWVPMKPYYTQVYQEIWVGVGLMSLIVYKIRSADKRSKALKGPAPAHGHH
UniProt P59041: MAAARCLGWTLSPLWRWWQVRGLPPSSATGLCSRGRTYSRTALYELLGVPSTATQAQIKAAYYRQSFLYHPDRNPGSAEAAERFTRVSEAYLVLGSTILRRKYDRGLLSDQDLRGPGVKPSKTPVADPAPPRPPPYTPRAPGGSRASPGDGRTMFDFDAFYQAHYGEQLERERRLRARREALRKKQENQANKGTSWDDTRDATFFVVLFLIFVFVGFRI

The other results are listed elsewhere or left out. Most entries show no effect beyond the scatter of the controls.

Compound in the experiment: CN[C@@H]1C[C@H]2O[C@@](C)([C@@H]1OC)n1c3ccccc3c3c4c(c5c6ccccc6n2c5c31)C(=O)NC4 [staurosporine]
Put plainly: log2 fold change of tryptic peptide abundance, ligand vs vehicle (limited proteolysis) (log2 ratio); higher = more trypsin-susceptible (destabilized). To be noted: ligand concentration: 20 uM; sample: mouse liver crude lysate; replicate design: treated separately.
Take “UniProt P61022 (peptide sequence: DELLQVLR, peptide start residue: 133)”: the log2 fold change is -0.131. Then “UniProt P59108 (peptide sequence: VITLSLAGR, peptide start residue: 156)”, with 0.324.

As to “UniProt P56477 (peptide sequence: KLITVQVVPVAAR, peptide start residue: 411)”, the log2 fold change was -0.744.

For “UniProt P56382 (peptide sequence: QAGLSYIR, peptide start residue: 7)”, the log2 fold change is -0.0445. Under “UniProt P56480 (peptide sequence: IMNVIGEPIDERGPIKTK, peptide start residue: 144)” stands 0.149. As to “UniProt P56379 (peptide sequence: MFQTLIQK, peptide start residue: 1)”, the log2 fold change came to 0.371. Consider “UniProt P59041 (peptide sequence: VSEAYLVLGSTILRR, peptide start residue: 87)”, for which the log2 fold change was determined as 0.239.
